Microarray screen: hit calls

Oligonucleotides screened, 5′ to 3′:
SAM-II: SAM-II riboswitch RNA pseudoknot, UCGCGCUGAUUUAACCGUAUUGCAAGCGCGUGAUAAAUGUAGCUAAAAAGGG. About 200 hits among about 21,000 compounds.
PreQ1: PreQ1 riboswitch RNA pseudoknot, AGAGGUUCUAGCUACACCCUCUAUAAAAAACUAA. From B. subtilis. About 170 hits among about 24,000 compounds.

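The test is a small-molecule microarray: each compound is printed twice on a reactive slide, and binding shows as fluorescence of the labelled oligonucleotide after washing. The data file lists only calls. An earlier report of the laboratory on the PreQ1, TPP and SAM-II riboswitches (doi:10.1038/s41467-019-09493-3) used 1 µM RNA for 2 h and required a mean Z-score above 3 (spot signal-to-noise against the whole library), a score well above that on a control array, and duplicate spots agreeing (coefficient of variation under 100); it then also set aside compounds that hit other targets, which this list keeps. The cut-offs behind this list may differ. The calls come from the array alone, and fixing a compound to the slide can hide its binding.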
“active” means called a hit, “inactive” means screened and not called a hit.
This is an unselected part of the compounds tested.
A target missing from an entry has no call listed here.

Calls for Cc1nn(C)c(C)c1-c1cc(-c2nc(C3CCCC3)nn2CCO)n(C)n1 are SAM-II: inactive; PreQ1: inactive. Calls for COCCOC(=O)C1=C(N)OC2=C(C(=O)CC(C)(C)C2)C1c1ccncc1 (centres unmarked) are SAM-II: inactive; PreQ1: inactive. With OCCSc1nc2ccccc2n1CCOc1ccccc1 the screen gave SAM-II: inactive; PreQ1: inactive. COc1ccc(NC(=O)NC2CC(C)(C)NC(C)(C)C2)c(OC)c1 was scored SAM-II: inactive; PreQ1: inactive. OCc1nc2ccccc2n1CCOc1ccccc1 was scored SAM-II: inactive; PreQ1: inactive. For CN(Cc1cn[nH]c1-c1ccc(F)cc1)C(=O)[C@H](N)Cc1ccccc1 the calls were SAM-II: inactive; PreQ1: inactive.

CC(=O)C1=C(NCCc2c(C)[nH]c3ccccc23)CC(c2ccccc2)CC1=O (centres unmarked) was scored SAM-II: inactive; PreQ1: inactive. O=C(O)C(Cc1c[nH]c2ccccc12)N1C(=O)c2ccccc2C1=O (centres unmarked) was scored SAM-II: inactive; PreQ1: inactive. c1cncc(NCCNc2nc(C3CCCC3)nc3c2CNC3)c1 was scored SAM-II: inactive; PreQ1: inactive. With Cc1nc(C(=O)NCC(=O)O)c(O)c2ccc(Oc3ccccc3)cc12 the screen gave SAM-II: inactive; PreQ1: inactive. For O=C(NCCO)C1=Cc2cc(Br)ccc2OC=C1 the calls were PreQ1: inactive. With CC1(C)NC(=O)N(CC(O)COc2ccc(Br)cc2)C1=O (centres unmarked) the screen gave SAM-II: inactive; PreQ1: inactive.

With c1ccc(COc2cccc(CNC3CCOC4(CCOCC4)C3)c2)cc1 (centres unmarked) the screen gave SAM-II: inactive; PreQ1: inactive. For CCOc1ccccc1NC1c2ccccc2C(=O)N1c1cccnc1 (centres unmarked) the calls were SAM-II: inactive; PreQ1: inactive. With CCc1cnc(NC[C@H]2C[C@@H](CO)N(C)[C@H]2c2ccccc2F)nc1 the screen gave SAM-II: inactive; PreQ1: inactive. Cc1cc2c(c(=O)o1)C(c1ccc(Cl)cc1Cl)C(C#N)=C(N)O2 (centres unmarked) was scored SAM-II: inactive; PreQ1: inactive. With CC(O)c1nc2ccccc2n1CCC1CCCCC1 (centres unmarked) the screen gave SAM-II: inactive; PreQ1: inactive. For CC(CCc1ccc(O)cc1)NC1CC(C)(C)NC(C)(C)C1 (centres unmarked) the calls were SAM-II: inactive; PreQ1: inactive.

Calls for O=C(C1CC12CCNCC2)N1CCCN(CCCc2ccccc2)CC1 (centres unmarked) are SAM-II: inactive; PreQ1: inactive. Calls for Cc1ccnc(NS(=O)(=O)c2ccc(NC(=O)Nc3ccc(S(=O)(=O)Nc4nccc(C)n4)cc3)cc2)n1 are SAM-II: inactive; PreQ1: inactive. For C[C@H]([C@@H](O)c1ccc(O)cc1)n1ccnc1-c1coc(-c2ccccc2)n1 the calls were SAM-II: inactive; PreQ1: inactive. CCn1ccnc1CN(C)C(=O)c1ccc(C2CCNC2)cc1 (centres unmarked) was scored SAM-II: inactive; PreQ1: inactive. For OCc1ccccc1O[C@@H]1O[C@H](CO)[C@H](O)[C@H](O)[C@H]1O the calls were SAM-II: inactive; PreQ1: inactive.

Calls as published in the ROBIN set (doi:10.1002/anie.202211358).